The list shows a part of the results. The calls rarely recur for the same compound in another form.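 Kinases were expressed as nanoluciferase fusions in K562 cells and luminescence was read every 4 h between 2 and 18 h as percent of control, DMSO set to 100% and a positive control to 0%. A time point counts as decreased when the signal drops significantly (2 sigma). The hit call is the authors' own, does not follow from the count of time points alone, and its rule is not shown.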
What was measured:
Details in all cases: K562; 2-18 h
STK38 = STK38 (UniProt Q15208); assay: kinase-Nluc reporter destabilization hit call (1 = scored as downregulated) (binary); higher = compound decreases kinase abundance
SYK = SYK (UniProt P43405); assay: as above
TEC = TEC (UniProt P42680); assay: as above
TYK2 = TYK2 (UniProt P29597); assay: as above
ULK3 = ULK3 (UniProt Q6PHR2); assay: as above
YES1 = YES1 (UniProt P07947); assay: as above
ZAK = ZAK (UniProt Q9NYL2); assay: as above
ZAP70 = ZAP70 (UniProt P43403); assay: as above
ABL1 = ABL1 (UniProt P00519); assay: number of time points (of 5) at which kinase-Nluc abundance scored as decreased, DMSO-normalised (count); higher = more persistent destabilization
AKT1 = AKT1 (UniProt P31749); assay: as above
ALK = ALK (UniProt Q9UM73); assay: as above
ARAF = ARAF (UniProt P10398); assay: as above
AURKA = AURKA (UniProt O14965); assay: as above
AURKB = AURKB (UniProt Q96GD4); assay: as above
AURKC = AURKC (UniProt Q9UQB9); assay: as above
BLK = BLK (UniProt P51451); assay: as above
BMX = BMX (UniProt P51813); assay: as above
BRAF = BRAF (UniProt P15056); assay: as above
BRAF_V600E = assay: as above
BTK = BTK (UniProt Q06187); assay: as above

The chains behind the UniProt entries cited, without tags or fusion partners. Where a name states a change or a piece, a line headed by the entry shows the natural chain unless it says otherwise.
UniProt P29597: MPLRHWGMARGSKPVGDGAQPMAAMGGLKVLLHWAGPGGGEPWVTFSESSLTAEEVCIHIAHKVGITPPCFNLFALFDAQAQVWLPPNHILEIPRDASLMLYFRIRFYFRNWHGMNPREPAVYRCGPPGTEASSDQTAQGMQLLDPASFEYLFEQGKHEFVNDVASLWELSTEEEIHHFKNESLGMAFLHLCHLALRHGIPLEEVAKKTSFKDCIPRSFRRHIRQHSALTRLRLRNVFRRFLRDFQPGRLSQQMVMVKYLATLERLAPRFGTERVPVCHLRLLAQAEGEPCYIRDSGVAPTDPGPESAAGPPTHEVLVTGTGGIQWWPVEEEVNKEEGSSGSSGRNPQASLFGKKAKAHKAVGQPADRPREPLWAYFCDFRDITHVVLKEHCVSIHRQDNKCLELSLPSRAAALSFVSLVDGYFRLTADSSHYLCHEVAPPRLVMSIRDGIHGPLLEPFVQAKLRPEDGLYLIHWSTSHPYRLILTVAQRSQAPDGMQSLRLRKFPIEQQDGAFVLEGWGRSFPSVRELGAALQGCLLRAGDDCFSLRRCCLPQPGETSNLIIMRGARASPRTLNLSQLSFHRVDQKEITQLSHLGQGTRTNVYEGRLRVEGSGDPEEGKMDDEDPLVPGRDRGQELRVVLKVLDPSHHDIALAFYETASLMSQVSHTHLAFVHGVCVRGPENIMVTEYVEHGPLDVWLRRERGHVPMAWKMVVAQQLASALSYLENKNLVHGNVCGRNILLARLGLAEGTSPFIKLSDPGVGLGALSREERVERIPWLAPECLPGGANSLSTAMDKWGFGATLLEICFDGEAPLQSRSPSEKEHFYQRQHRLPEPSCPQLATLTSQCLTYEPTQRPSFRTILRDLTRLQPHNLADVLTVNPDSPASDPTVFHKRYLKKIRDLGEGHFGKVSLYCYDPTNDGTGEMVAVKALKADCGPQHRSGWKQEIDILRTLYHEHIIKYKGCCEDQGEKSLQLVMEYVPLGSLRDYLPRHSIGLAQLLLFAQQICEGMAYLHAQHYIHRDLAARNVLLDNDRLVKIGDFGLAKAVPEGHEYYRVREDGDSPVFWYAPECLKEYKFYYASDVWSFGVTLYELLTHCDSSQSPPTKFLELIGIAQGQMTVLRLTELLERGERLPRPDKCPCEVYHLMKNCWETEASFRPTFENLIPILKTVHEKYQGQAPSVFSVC
UniProt Q6PHR2: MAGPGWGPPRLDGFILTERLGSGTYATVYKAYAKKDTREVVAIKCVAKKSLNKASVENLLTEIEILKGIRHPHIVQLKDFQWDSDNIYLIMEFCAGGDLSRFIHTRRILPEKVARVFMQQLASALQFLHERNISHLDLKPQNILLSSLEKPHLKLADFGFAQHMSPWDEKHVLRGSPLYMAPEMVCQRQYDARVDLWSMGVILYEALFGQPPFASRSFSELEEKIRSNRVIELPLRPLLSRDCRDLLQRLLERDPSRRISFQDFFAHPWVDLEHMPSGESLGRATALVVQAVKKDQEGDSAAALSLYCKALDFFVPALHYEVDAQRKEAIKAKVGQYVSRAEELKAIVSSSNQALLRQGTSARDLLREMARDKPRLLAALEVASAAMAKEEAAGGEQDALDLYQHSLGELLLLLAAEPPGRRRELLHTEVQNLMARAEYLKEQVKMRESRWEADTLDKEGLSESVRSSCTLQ
UniProt P43403: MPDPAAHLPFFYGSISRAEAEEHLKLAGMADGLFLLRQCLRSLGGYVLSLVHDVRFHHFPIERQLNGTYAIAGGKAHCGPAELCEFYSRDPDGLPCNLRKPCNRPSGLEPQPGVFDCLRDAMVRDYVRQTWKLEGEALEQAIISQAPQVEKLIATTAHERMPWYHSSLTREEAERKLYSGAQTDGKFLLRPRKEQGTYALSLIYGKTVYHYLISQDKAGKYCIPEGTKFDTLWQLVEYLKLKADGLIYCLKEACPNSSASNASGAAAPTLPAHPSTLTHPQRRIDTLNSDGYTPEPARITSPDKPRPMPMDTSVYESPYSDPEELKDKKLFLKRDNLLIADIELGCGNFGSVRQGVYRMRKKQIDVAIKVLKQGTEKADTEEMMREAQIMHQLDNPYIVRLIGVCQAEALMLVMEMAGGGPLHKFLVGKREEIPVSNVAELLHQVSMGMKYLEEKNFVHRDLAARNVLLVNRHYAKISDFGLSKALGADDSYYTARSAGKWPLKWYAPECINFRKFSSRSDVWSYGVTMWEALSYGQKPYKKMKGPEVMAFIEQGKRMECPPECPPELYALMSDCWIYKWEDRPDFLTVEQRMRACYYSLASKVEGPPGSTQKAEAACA
UniProt P00519, whole entry: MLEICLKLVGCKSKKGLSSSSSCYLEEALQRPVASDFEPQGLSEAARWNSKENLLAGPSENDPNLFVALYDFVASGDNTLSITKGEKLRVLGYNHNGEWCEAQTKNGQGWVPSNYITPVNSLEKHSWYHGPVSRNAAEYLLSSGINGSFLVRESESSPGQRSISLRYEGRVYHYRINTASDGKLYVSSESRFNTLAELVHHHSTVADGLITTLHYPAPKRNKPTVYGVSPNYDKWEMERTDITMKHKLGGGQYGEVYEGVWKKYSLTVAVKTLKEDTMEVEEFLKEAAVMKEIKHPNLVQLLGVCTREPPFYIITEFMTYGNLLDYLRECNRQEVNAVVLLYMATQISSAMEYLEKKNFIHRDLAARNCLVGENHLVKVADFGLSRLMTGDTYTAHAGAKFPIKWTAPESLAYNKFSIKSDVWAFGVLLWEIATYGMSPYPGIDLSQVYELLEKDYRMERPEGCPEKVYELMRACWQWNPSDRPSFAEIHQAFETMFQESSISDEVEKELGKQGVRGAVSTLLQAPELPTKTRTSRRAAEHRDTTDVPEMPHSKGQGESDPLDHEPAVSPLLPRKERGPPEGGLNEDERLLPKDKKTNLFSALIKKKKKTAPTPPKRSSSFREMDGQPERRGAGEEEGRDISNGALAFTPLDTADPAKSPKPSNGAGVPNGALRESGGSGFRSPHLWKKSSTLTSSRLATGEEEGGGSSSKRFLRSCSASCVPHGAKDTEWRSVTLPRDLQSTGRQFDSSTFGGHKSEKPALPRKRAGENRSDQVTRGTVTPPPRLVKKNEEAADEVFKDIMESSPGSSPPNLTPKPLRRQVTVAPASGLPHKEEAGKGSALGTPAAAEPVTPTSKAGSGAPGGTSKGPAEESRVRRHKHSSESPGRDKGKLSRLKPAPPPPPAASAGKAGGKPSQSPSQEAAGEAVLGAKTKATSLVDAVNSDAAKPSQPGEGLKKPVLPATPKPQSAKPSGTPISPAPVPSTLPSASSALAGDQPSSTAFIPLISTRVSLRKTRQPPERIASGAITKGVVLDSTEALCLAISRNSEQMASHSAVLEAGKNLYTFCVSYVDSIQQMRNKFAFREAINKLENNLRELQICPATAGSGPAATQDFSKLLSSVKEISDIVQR
UniProt P31749: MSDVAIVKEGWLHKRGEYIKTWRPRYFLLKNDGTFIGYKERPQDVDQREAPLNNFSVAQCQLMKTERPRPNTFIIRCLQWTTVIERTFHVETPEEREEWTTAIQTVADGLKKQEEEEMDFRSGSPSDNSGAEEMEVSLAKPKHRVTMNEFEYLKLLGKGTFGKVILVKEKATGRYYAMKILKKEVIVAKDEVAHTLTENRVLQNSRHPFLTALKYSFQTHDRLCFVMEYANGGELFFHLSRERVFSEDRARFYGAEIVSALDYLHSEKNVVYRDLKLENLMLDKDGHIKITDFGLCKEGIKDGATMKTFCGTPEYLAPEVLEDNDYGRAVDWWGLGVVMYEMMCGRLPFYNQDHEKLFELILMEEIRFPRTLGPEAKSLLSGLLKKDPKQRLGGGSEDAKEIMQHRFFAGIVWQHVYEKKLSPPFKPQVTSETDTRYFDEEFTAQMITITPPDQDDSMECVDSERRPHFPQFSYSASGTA
UniProt P10398: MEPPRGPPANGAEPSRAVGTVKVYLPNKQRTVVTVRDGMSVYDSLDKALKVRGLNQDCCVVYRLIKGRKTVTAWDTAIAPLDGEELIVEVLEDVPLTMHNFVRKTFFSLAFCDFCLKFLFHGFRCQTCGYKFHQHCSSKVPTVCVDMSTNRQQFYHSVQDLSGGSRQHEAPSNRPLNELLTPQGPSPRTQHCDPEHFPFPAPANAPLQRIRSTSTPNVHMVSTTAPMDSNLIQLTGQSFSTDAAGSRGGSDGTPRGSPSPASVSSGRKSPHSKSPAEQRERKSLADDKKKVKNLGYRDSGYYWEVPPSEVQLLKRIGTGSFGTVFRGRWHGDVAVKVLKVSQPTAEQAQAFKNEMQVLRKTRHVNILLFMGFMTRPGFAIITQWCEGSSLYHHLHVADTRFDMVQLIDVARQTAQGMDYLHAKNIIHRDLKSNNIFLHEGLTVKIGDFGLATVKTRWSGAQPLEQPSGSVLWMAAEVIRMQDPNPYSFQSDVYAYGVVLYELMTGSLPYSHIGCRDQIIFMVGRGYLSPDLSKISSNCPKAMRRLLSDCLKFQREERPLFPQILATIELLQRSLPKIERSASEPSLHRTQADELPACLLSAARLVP
UniProt O14965: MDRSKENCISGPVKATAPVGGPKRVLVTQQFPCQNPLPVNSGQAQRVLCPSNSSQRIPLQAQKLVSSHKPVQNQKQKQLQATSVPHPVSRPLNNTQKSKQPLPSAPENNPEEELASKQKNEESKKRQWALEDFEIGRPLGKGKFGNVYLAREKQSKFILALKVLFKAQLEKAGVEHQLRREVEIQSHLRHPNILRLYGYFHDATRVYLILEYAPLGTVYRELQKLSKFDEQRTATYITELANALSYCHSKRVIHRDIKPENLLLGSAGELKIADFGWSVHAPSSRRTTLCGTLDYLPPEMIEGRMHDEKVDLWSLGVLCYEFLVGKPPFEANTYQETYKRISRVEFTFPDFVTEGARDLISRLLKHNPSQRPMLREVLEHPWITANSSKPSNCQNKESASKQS
UniProt P51813: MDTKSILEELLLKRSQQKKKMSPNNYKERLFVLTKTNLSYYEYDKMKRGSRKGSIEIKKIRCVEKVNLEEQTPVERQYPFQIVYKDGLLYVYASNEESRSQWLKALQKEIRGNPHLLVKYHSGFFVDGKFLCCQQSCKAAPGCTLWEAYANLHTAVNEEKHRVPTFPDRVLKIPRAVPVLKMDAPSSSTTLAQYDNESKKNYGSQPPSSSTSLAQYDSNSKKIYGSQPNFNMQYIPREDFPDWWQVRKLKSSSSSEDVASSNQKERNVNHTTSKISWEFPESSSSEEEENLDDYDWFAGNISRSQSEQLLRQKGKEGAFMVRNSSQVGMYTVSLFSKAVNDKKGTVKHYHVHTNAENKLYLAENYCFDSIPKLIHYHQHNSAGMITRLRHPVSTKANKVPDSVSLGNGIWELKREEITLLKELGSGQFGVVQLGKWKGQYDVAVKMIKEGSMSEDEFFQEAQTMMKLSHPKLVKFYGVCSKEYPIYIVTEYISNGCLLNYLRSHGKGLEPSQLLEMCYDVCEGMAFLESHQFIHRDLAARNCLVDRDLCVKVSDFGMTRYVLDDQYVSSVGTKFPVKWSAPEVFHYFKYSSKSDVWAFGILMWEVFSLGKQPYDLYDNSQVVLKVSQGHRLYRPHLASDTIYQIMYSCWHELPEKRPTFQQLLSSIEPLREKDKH
UniProt P15056, whole entry, looked up: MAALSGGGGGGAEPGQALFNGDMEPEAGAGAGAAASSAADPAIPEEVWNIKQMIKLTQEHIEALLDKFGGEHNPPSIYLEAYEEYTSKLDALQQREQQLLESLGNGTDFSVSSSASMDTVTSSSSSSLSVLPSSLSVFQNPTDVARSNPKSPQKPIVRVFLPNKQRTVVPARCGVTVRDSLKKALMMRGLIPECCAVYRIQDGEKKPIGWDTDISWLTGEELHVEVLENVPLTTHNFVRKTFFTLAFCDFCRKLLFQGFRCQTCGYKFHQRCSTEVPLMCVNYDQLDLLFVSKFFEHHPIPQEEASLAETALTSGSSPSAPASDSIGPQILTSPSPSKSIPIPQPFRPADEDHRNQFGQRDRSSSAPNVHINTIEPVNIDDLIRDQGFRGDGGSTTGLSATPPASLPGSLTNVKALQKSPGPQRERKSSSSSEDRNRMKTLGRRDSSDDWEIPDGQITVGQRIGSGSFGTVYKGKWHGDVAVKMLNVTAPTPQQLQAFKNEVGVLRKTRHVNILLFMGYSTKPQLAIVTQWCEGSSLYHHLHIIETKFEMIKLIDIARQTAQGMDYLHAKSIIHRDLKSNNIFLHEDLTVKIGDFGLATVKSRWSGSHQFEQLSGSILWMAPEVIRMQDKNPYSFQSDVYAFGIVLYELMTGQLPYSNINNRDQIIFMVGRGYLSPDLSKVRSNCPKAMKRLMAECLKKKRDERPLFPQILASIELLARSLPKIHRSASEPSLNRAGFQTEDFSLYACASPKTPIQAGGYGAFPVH

Cc1cc(C(=O)NOCCO)c(Nc2ccc(I)cc2F)n(C)c1=O (10 µM)
2: number of time points (ABL1) | number of time points (BRAF_V600E)
inactive: kinase-Nluc reporter destabilization hit call (STK38) 0 | kinase-Nluc reporter destabilization hit call (SYK) 0 | kinase-Nluc reporter destabilization hit call (TEC) 0 | kinase-Nluc reporter destabilization hit call (TYK2) 0 | kinase-Nluc reporter destabilization hit call (ULK3) 0 | kinase-Nluc reporter destabilization hit call (YES1) 0 | kinase-Nluc reporter destabilization hit call (ZAK) 0 | kinase-Nluc reporter destabilization hit call (ZAP70) 0
0: number of time points (AKT1) | number of time points (ALK) | number of time points (ARAF) | number of time points (AURKA) | number of time points (AURKB) | number of time points (AURKC) | number of time points (BLK) | number of time points (BMX) | number of time points (BRAF) | number of time points (BTK)

COc1cc(-c2cc(OP(=O)(O)O)cc(-c3cc(OC)c(OC)c(OC)c3)c2)cc(OC)c1OC [Stafia-1] (10 µM)
0: number of time points (ABL1) | number of time points (AKT1) | number of time points (ALK) | number of time points (ARAF) | number of time points (AURKA) | number of time points (AURKB) | number of time points (AURKC) | number of time points (BLK) | number of time points (BMX) | number of time points (BRAF) | number of time points (BRAF_V600E) | number of time points (BTK)
inactive: kinase-Nluc reporter destabilization hit call (STK38) 0 | kinase-Nluc reporter destabilization hit call (SYK) 0 | kinase-Nluc reporter destabilization hit call (TEC) 0 | kinase-Nluc reporter destabilization hit call (TYK2) 0 | kinase-Nluc reporter destabilization hit call (ULK3) 0 | kinase-Nluc reporter destabilization hit call (YES1) 0 | kinase-Nluc reporter destabilization hit call (ZAK) 0 | kinase-Nluc reporter destabilization hit call (ZAP70) 0

O=C(NCCN1CCOCC1)Nc1nc2ccc(Sc3nnc4ccc(-c5ccc(F)cc5)nn34)cc2s1 (10 µM)
0: number of time points (ABL1) | number of time points (AKT1) | number of time points (ALK) | number of time points (ARAF) | number of time points (AURKA) | number of time points (AURKB) | number of time points (AURKC) | number of time points (BLK) | number of time points (BMX) | number of time points (BRAF) | number of time points (BRAF_V600E) | number of time points (BTK)
inactive: kinase-Nluc reporter destabilization hit call (STK38) 0 | kinase-Nluc reporter destabilization hit call (SYK) 0 | kinase-Nluc reporter destabilization hit call (TEC) 0 | kinase-Nluc reporter destabilization hit call (TYK2) 0 | kinase-Nluc reporter destabilization hit call (ULK3) 0 | kinase-Nluc reporter destabilization hit call (YES1) 0 | kinase-Nluc reporter destabilization hit call (ZAK) 0 | kinase-Nluc reporter destabilization hit call (ZAP70) 0

CCCn1/c(=N/C(=O)c2cccc(C(N)=O)c2)[nH]c2ccccc21 [Takinib] (10 µM)
0: number of time points (ABL1) | number of time points (AKT1) | number of time points (ALK) | number of time points (ARAF) | number of time points (AURKA) | number of time points (AURKB) | number of time points (AURKC) | number of time points (BLK) | number of time points (BMX) | number of time points (BRAF) | number of time points (BRAF_V600E) | number of time points (BTK)
inactive: kinase-Nluc reporter destabilization hit call (STK38) 0 | kinase-Nluc reporter destabilization hit call (SYK) 0 | kinase-Nluc reporter destabilization hit call (TEC) 0 | kinase-Nluc reporter destabilization hit call (TYK2) 0 | kinase-Nluc reporter destabilization hit call (ULK3) 0 | kinase-Nluc reporter destabilization hit call (YES1) 0 | kinase-Nluc reporter destabilization hit call (ZAK) 0 | kinase-Nluc reporter destabilization hit call (ZAP70) 0

Nc1ncc(C(=O)NC2CN(C(=O)C3CC3)C2)c2ccc(-c3cccc(F)c3)nc12 (2 µM)
inactive: kinase-Nluc reporter destabilization hit call (STK38) 0 | kinase-Nluc reporter destabilization hit call (SYK) 0 | kinase-Nluc reporter destabilization hit call (TEC) 0 | kinase-Nluc reporter destabilization hit call (TYK2) 0 | kinase-Nluc reporter destabilization hit call (ULK3) 0 | kinase-Nluc reporter destabilization hit call (YES1) 0 | kinase-Nluc reporter destabilization hit call (ZAK) 0 | kinase-Nluc reporter destabilization hit call (ZAP70) 0
0: number of time points (ABL1) | number of time points (AKT1) | number of time points (ALK) | number of time points (ARAF) | number of time points (AURKA) | number of time points (AURKB) | number of time points (AURKC) | number of time points (BLK) | number of time points (BMX) | number of time points (BRAF) | number of time points (BRAF_V600E) | number of time points (BTK)

Brc1ccc(CSc2nc3ccccc3o2)cc1 [BMP signaling agonist sb4] (10 µM)
inactive: kinase-Nluc reporter destabilization hit call (STK38) 0 | kinase-Nluc reporter destabilization hit call (SYK) 0 | kinase-Nluc reporter destabilization hit call (TEC) 0 | kinase-Nluc reporter destabilization hit call (TYK2) 0 | kinase-Nluc reporter destabilization hit call (ULK3) 0 | kinase-Nluc reporter destabilization hit call (YES1) 0 | kinase-Nluc reporter destabilization hit call (ZAK) 0 | kinase-Nluc reporter destabilization hit call (ZAP70) 0
0: number of time points (ABL1) | number of time points (AKT1) | number of time points (ALK) | number of time points (ARAF) | number of time points (AURKA) | number of time points (AURKB) | number of time points (AURKC) | number of time points (BLK) | number of time points (BMX) | number of time points (BRAF) | number of time points (BRAF_V600E) | number of time points (BTK)

Cc1ccc(C)c(OCCn2cc(C(=O)O)c3ccccc32)c1 (10 µM)
0: number of time points (ABL1) | number of time points (AKT1) | number of time points (ALK) | number of time points (ARAF) | number of time points (AURKA) | number of time points (AURKB) | number of time points (AURKC) | number of time points (BLK) | number of time points (BMX) | number of time points (BRAF) | number of time points (BRAF_V600E) | number of time points (BTK)
inactive: kinase-Nluc reporter destabilization hit call (STK38) 0 | kinase-Nluc reporter destabilization hit call (SYK) 0 | kinase-Nluc reporter destabilization hit call (TEC) 0 | kinase-Nluc reporter destabilization hit call (TYK2) 0 | kinase-Nluc reporter destabilization hit call (ULK3) 0 | kinase-Nluc reporter destabilization hit call (YES1) 0 | kinase-Nluc reporter destabilization hit call (ZAK) 0 | kinase-Nluc reporter destabilization hit call (ZAP70) 0

Pulled by compound from the list above, two records:
CCCn1/c(=N/C(=O)c2cccc(C(N)=O)c2)[nH]c2ccccc21 [Takinib] (10 µM)
0: number of time points (ABL1) | number of time points (AKT1) | number of time points (ALK) | number of time points (ARAF) | number of time points (AURKA) | number of time points (AURKB) | number of time points (AURKC) | number of time points (BLK) | number of time points (BMX) | number of time points (BRAF) | number of time points (BRAF_V600E) | number of time points (BTK)
inactive: kinase-Nluc reporter destabilization hit call (STK38) 0 | kinase-Nluc reporter destabilization hit call (SYK) 0 | kinase-Nluc reporter destabilization hit call (TEC) 0 | kinase-Nluc reporter destabilization hit call (TYK2) 0 | kinase-Nluc reporter destabilization hit call (ULK3) 0 | kinase-Nluc reporter destabilization hit call (YES1) 0 | kinase-Nluc reporter destabilization hit call (ZAK) 0 | kinase-Nluc reporter destabilization hit call (ZAP70) 0

Nc1ncc(C(=O)NC2CN(C(=O)C3CC3)C2)c2ccc(-c3cccc(F)c3)nc12 (2 µM)
inactive: kinase-Nluc reporter destabilization hit call (STK38) 0 | kinase-Nluc reporter destabilization hit call (SYK) 0 | kinase-Nluc reporter destabilization hit call (TEC) 0 | kinase-Nluc reporter destabilization hit call (TYK2) 0 | kinase-Nluc reporter destabilization hit call (ULK3) 0 | kinase-Nluc reporter destabilization hit call (YES1) 0 | kinase-Nluc reporter destabilization hit call (ZAK) 0 | kinase-Nluc reporter destabilization hit call (ZAP70) 0
0: number of time points (ABL1) | number of time points (AKT1) | number of time points (ALK) | number of time points (ARAF) | number of time points (AURKA) | number of time points (AURKB) | number of time points (AURKC) | number of time points (BLK) | number of time points (BMX) | number of time points (BRAF) | number of time points (BRAF_V600E) | number of time points (BTK)

(list continues)

COc1ccc(Br)cc1NC(=O)Nc1cccc2c1ccn2Cc1ccnc(N)c1 (2.5 µM)
inactive: kinase-Nluc reporter destabilization hit call (STK38) 0 | kinase-Nluc reporter destabilization hit call (SYK) 0 | kinase-Nluc reporter destabilization hit call (TEC) 0 | kinase-Nluc reporter destabilization hit call (TYK2) 0 | kinase-Nluc reporter destabilization hit call (ULK3) 0 | kinase-Nluc reporter destabilization hit call (YES1) 0 | kinase-Nluc reporter destabilization hit call (ZAK) 0 | kinase-Nluc reporter destabilization hit call (ZAP70) 0
0: number of time points (ABL1) | number of time points (AKT1) | number of time points (ALK) | number of time points (ARAF) | number of time points (AURKA) | number of time points (AURKB) | number of time points (AURKC) | number of time points (BLK) | number of time points (BMX) | number of time points (BRAF) | number of time points (BRAF_V600E) | number of time points (BTK)
